Source: US20100303896A1, “5BETA, 14BETA-ANDROSTANE DERIVATIVES USEFUL FOR THE TREATMENT OF RESTENOSIS AFTER ANGIOPLASTIC OR ENDOARTHERECTOMY AND DISEASES DUE TO ORGAN FIBROSIS” (SIGMA-TAU INDUSTRIE FARMACEUTICHE RIUNITE S.P.A., priority 2007, published 2010)
“And” between values parts separate entries of the source, which are not always exact repeats. Identical values can stand only once.

System: MHS rats with CCl4-induced liver fibrosis
Experiment: CCl4-induced liver fibrosis: body and organ weights
Assay type: in vivo, rat
Conditions: RLF group, 1 mg/kg os for 10 weeks + CCl4
Source text: To test the activity of the compound of the invention for the prevention and treatment of organ fibrosis, spontaneous hypertensive MHS rats with genetic arterial hypertension (Bianchi G., Barber B. R., Torielli L., Ferrari P. The Milan hypertensive strain of rats. Genetic Model of Hypertension. 1994; 22: 457-460) were used. MHS rats are available at Prassis Research Institute, Sigma-tau, Italy.
Liver fibrosis was induced by CCl4 oral administration as described in J. Hepatol. 1999; 30: 621-631, with minor modifications: 0.375 ml/kg of CCl4 dissolved in olive oil was administered three times per week for three weeks by oral gavage to rats starting from the 7th week after weaning. Control rats received only the vehicle (olive oil). Rostafuroxin treatment started 7 weeks before the induction of liver fibrosis by CCl4 administration (pretreatment) and was continued during the CCl4 treatment for three weeks. Rostafuroxin was orally administered at 1 mg/kg/day, suspended in Methocel (0.5%). […]

In the case of `C[C@]12CC[C@H](O)C[C@H]1CC[C@@H]1[C@@H]2CC[C@]2(C)[C@@](O)(c3ccoc3)CC[C@]12O` [Rostafuroxin, 17 beta-(3-Furyl)-5 beta-androstane-3beta, 14 beta, 17 alpha-triol], the “BW, mean” value (group mean (n=8), Ctr. LF mean 349.4) is reported as 353 g and the BW (individual rats, 1 mg/kg) is reported as 347 g and 364 g and 366 g and 344 g (2×) and 333 g and 381 g and 345 g.
